Literature values in patent US20060160721A1, “Method of plasma lipidation to prevent, inhibit and/or reverse atherosclerosis” (BAYLOR COLLEGE OF MEDICINE, priority 2004, published 2006).
At least one compound was matched to its structure with a doubt left.

Details: cited from earlier work

Compound: CCCCCCCCO[C@@H]1O[C@H](CO)[C@@H](O)[C@H](O)[C@H]1O [Octylglucoside, η-Octyl-β-D-glucoside, reference compound]
- CMC: 23 to 25 mM
